The assay concerns the target T1, Spc97 fused to the tandem affinity purification (TAP) tag (S. cerevisiae) (UniProt P38863).
T1 sequence: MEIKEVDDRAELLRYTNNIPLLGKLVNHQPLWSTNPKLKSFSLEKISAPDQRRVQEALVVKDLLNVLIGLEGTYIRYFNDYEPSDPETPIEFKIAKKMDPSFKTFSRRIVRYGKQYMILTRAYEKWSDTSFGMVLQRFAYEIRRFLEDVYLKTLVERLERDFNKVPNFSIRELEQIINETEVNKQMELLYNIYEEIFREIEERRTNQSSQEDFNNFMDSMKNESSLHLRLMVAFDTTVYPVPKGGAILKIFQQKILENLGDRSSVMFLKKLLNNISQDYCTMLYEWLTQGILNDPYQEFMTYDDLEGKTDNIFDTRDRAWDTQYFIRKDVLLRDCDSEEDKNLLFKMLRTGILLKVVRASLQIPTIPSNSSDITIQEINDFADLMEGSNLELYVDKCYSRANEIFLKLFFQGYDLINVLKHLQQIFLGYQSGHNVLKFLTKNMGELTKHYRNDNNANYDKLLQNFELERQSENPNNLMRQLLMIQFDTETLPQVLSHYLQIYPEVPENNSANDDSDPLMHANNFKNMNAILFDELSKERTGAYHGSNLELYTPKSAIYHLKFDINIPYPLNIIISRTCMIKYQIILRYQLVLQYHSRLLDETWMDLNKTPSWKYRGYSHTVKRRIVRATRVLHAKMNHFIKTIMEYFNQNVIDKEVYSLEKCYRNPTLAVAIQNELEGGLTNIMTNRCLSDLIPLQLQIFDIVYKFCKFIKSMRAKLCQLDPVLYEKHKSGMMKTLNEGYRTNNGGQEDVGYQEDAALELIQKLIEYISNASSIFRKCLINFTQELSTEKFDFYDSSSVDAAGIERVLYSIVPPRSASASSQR
As to the kind of experiment: affinity purification with mass spectrometry; Spc97-TAP purified on an IgG-Sepharose column from lysate of yeast after Gal1-induced co-expression of SPC97-TAP, SPC98 and TUB4; lysis buffer 20 mM Tris/HCl pH 7.5, 0.1 M NaCl, 0.1% NP-40; wash with 0.6 M potassium acetate; SDS-PAGE with Coomassie Blue and mass spectrometry.

Results are given in words; binding and its absence hold for the method and conditions named. In cells and extracts the contact can be indirect. Here binding means that the protein was enriched with, or labelled near, the bait; the list need not be complete. Tags and fused reporters may be left off the sequences shown.

B1: Spc72 (protein, UniProt P39723 1-622)
chain: MVRRWIPSGRHLRNNDNTGDDDDSEFTNSMDSGMSIPSLRDSMTTRSSHNDPIKPALMNDSNKVKNLEKELTNAKIKIQVLYEYIRRIPNKDGNAPSLGNDTDFRNSIIEGLNLEINKLKQDLKAKEVEYQDTLQFVQENLENSESIVNTINHLLSFILTHFNEQDENAHLLDKEERETLEETLELSSDYVLEKMDTLSKFIIQFLQDFLHSKSRAESKQDKEEFLSLAQSSPAGSQLESRDSPSSKEENTDGGYQNDEIHDSNNHIDTENVMANSTSLPISAVESRFEKTLDTQLEIVIENLHKEYDQFINSIRLKFEKSQKLEKIIASKLNEQSHLLDSLELEENSSSVIEKQDHLISQLKEKIESQSVLINNLEKLKEDIIKMKQNEKVLTKELETQTKINKLKENNWDSYINDLEKQINDLQIDKSEEFHVIQNQLDKLDLENYQLKNQLNTLDNQKLILSQYESNFIKFNQNLLLHLDSIFNILQKILQESSIAQFDRKMKSIKSVPNALKNLNLIQPKLESLYTFIETALESIINSYISSLISMETPEQPHQQGNELTATPNKELTLRIEELQRRWISERERRKLDANASEARIKALEQENESLRSKLFNLSINNP
As for B1, the binding result is listed as “binds”.
